For this assay, the target named is T1, PRMT7 (human (endogenous in TCam-2)) (UniProt Q9NVM4).
T1 sequence: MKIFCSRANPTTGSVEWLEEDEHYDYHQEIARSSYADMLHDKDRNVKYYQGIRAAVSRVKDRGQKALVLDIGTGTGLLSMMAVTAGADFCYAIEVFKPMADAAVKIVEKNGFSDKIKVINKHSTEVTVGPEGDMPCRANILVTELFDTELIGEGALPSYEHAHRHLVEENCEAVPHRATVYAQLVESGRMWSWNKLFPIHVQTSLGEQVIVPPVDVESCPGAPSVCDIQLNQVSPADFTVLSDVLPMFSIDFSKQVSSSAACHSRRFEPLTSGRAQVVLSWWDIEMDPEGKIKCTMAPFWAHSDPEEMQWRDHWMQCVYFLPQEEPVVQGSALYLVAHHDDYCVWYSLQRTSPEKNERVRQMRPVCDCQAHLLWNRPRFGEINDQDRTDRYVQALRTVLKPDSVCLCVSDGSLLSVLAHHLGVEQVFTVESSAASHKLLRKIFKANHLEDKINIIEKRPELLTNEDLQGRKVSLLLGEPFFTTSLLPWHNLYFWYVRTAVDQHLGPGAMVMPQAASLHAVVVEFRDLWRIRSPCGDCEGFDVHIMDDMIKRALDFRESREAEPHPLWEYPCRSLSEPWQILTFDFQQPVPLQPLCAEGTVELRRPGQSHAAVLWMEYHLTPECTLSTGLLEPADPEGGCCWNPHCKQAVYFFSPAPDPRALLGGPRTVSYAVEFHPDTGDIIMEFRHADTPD
Briefly: co-IP; extracts from TCam-2 cells; Dynabeads; immunoprecipitation with anti-PRMT5 (1,5 ug) or anti-PRMT7 antibody, Western blot with anti-BLIMP1 antibody; no-antibody control. (A western blot detects proteins with antibodies after separation by electrophoresis.)

Chains of the proteins cited; added tags and fusions are not shown.
UniProt O75626: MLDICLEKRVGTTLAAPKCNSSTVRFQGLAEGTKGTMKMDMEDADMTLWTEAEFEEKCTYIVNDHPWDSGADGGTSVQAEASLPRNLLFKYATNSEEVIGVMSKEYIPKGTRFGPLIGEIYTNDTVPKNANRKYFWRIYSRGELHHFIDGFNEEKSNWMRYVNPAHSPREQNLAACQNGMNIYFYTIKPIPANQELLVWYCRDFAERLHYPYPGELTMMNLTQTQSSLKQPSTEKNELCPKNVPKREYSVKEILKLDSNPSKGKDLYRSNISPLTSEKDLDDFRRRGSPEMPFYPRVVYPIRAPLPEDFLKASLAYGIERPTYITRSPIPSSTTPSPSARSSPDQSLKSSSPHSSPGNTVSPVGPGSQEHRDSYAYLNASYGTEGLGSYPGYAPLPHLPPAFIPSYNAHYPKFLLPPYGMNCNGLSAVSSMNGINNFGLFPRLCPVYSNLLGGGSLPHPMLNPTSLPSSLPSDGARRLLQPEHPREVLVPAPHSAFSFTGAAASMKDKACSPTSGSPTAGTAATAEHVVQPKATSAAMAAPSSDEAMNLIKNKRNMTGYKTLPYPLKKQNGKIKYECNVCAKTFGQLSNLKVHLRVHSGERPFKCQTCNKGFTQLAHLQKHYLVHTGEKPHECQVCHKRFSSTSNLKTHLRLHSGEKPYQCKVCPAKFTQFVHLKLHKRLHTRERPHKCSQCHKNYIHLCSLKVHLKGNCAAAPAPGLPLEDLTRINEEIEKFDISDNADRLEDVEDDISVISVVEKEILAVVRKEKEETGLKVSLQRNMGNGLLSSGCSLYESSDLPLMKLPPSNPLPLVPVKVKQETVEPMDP

No constants are given. Whether binding was seen depends on the method and setting. Binding seen in cells or lysates may run through a third protein. Some results given as binding are weak or reduced against the parent protein; the word gives no strength.

“BLIMP1 (B-Lymphocyte induced maturation protein-1; PRDM1) (from UniProt O75626 1-825)”: the binding entry is given as “binds”.

Source of the values: PMC2613889.
